This is one part of the list.

Sequences of proteins named here, by UniProt entry; tags and fusion partners are left off. A change or cut given only in a name is not applied to a line headed by its entry.
UniProt Q9UM13, whole entry, looked up: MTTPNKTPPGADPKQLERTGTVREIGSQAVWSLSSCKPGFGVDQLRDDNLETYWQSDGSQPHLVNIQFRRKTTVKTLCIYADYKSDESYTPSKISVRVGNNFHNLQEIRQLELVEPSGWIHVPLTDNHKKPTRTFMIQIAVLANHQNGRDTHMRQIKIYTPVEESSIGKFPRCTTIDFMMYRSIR
UniProt P54886: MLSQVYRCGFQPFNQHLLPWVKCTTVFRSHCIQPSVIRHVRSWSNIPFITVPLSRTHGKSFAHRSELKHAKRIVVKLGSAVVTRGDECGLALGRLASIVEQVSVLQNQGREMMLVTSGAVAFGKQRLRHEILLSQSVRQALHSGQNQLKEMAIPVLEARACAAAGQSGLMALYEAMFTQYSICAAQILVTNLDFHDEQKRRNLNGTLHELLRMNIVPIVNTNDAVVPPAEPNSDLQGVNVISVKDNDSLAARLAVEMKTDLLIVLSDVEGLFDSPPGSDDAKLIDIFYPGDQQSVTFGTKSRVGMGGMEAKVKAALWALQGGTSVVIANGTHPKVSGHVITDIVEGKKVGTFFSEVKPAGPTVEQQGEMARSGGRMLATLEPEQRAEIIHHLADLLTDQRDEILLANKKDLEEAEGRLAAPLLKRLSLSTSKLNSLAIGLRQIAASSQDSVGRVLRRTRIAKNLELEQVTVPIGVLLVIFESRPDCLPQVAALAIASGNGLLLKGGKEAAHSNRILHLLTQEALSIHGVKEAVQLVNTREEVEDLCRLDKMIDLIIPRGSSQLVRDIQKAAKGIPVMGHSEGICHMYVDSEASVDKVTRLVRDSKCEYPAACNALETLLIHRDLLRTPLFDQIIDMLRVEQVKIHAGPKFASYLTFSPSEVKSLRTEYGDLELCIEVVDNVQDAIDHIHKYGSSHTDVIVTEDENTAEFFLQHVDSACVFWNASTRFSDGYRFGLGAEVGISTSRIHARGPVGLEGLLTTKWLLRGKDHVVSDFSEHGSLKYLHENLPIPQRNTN
UniProt O43488: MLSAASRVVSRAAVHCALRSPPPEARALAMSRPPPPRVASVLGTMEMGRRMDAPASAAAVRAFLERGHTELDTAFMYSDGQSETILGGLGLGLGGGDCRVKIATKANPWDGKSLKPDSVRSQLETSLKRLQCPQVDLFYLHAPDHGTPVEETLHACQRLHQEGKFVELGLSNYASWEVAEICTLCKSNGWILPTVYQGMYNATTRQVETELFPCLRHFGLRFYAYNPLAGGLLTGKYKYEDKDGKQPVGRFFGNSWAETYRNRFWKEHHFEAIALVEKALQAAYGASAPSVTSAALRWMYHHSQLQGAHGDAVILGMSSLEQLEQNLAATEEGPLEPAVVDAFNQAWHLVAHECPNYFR
UniProt Q9UJX6, whole entry, looked up: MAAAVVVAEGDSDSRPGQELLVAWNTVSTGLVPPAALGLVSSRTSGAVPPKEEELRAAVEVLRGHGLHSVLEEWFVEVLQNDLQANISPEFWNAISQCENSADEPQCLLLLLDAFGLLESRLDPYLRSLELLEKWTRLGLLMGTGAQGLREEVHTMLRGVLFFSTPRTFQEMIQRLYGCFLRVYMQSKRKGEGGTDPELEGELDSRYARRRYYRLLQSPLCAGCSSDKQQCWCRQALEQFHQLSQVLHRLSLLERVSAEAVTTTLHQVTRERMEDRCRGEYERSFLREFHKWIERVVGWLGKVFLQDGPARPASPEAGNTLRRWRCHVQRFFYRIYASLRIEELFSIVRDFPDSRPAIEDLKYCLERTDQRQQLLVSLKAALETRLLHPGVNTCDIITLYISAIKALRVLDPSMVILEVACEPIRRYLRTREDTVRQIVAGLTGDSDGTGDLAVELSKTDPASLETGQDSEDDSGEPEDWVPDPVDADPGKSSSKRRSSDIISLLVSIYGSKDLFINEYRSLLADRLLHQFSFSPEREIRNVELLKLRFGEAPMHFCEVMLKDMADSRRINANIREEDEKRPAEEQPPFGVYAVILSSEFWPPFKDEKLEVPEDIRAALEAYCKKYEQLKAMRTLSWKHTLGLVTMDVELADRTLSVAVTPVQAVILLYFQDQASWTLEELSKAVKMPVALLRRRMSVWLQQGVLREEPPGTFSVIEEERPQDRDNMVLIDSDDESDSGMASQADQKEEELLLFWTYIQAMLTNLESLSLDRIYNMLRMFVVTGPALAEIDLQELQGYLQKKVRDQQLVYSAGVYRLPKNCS
UniProt Q99996, whole entry, looked up: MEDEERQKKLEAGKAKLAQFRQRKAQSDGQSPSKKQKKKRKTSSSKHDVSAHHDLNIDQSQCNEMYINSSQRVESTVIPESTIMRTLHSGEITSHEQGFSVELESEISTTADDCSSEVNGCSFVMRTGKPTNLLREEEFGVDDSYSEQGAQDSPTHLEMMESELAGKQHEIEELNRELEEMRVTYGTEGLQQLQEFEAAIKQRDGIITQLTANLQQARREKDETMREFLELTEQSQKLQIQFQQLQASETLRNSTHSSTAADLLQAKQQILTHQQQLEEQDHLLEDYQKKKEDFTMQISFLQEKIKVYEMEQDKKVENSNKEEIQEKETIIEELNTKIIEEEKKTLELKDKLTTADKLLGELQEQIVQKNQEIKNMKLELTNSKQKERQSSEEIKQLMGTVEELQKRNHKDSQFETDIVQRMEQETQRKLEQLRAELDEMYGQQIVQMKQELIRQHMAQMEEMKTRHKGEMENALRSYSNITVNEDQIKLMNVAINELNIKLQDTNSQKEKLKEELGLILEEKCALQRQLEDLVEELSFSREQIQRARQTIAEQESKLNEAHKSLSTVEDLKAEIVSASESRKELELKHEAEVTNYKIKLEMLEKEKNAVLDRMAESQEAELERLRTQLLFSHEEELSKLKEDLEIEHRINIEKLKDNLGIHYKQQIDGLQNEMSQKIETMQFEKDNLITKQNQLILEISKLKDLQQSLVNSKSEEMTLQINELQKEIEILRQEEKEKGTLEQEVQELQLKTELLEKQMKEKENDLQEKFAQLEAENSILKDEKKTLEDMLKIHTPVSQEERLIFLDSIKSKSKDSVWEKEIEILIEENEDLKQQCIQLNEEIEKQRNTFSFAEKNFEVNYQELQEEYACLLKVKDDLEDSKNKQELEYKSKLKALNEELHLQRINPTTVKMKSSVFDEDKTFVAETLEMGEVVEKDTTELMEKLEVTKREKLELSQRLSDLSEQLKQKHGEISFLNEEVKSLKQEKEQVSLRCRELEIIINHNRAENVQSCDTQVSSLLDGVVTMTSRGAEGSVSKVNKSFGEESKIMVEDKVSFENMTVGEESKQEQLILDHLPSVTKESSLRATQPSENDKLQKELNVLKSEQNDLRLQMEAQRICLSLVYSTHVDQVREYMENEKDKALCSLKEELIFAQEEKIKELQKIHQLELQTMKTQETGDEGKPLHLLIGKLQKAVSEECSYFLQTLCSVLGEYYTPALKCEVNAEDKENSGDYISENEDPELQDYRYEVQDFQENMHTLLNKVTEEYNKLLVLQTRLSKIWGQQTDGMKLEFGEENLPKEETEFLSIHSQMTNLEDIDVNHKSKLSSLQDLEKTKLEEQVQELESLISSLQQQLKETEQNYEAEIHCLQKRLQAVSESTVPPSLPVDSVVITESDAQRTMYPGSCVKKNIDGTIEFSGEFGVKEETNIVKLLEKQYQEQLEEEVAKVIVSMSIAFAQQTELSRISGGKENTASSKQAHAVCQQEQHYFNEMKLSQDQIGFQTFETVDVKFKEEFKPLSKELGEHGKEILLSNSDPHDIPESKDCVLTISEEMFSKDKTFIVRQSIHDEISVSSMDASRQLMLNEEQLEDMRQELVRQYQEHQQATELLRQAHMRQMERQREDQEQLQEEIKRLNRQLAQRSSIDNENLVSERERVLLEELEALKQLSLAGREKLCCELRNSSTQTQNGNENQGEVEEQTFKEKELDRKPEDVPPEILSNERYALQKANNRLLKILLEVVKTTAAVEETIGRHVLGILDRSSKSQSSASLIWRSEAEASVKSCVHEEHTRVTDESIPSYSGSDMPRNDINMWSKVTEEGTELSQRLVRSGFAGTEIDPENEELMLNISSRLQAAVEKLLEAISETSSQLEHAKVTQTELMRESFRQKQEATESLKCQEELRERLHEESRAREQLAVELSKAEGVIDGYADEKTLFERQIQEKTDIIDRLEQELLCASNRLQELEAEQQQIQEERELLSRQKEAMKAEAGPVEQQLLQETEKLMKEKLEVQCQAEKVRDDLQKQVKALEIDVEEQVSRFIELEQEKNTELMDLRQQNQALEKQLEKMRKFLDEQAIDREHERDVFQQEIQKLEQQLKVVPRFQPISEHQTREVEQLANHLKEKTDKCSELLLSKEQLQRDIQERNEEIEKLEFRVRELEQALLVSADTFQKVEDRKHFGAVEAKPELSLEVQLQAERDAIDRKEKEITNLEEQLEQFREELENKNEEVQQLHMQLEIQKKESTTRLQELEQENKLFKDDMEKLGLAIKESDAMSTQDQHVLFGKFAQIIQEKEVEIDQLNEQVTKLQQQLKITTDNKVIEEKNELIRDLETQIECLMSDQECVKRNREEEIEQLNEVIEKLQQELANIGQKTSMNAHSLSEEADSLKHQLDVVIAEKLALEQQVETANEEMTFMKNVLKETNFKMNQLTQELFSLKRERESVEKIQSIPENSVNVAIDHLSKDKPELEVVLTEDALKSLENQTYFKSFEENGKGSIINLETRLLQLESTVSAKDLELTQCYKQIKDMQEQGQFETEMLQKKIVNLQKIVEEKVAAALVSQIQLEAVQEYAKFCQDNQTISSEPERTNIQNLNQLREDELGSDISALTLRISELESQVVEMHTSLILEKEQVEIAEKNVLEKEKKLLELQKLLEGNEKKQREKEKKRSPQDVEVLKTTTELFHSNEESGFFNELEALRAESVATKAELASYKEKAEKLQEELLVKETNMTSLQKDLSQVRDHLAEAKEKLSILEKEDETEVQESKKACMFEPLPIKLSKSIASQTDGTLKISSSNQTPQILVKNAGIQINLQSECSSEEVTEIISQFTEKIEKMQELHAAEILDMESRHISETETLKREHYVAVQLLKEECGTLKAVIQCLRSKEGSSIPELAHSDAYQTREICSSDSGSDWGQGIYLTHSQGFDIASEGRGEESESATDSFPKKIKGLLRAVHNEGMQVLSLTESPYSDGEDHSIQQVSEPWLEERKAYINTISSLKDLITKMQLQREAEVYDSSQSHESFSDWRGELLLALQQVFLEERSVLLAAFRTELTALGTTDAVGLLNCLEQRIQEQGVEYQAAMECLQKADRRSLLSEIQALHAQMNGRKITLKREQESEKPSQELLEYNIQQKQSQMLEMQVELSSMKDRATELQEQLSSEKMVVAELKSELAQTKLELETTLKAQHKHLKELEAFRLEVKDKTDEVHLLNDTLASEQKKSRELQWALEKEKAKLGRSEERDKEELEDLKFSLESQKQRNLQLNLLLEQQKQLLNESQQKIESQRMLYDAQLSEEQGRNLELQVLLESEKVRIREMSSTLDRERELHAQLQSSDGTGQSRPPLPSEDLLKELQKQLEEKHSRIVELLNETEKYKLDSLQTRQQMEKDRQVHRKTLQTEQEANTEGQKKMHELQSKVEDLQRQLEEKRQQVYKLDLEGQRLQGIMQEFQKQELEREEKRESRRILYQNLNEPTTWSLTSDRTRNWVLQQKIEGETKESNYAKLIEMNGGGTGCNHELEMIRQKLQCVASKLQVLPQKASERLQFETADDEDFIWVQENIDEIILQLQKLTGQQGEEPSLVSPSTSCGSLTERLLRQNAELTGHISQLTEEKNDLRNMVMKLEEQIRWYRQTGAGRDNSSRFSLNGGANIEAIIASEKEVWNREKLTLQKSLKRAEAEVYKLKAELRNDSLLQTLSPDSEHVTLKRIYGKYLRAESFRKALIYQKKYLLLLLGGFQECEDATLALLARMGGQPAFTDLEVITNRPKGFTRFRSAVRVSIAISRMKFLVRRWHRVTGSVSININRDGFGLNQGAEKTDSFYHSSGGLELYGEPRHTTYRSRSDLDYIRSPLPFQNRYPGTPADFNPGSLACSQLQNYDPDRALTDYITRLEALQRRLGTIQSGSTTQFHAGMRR
UniProt O43865, whole entry, looked up: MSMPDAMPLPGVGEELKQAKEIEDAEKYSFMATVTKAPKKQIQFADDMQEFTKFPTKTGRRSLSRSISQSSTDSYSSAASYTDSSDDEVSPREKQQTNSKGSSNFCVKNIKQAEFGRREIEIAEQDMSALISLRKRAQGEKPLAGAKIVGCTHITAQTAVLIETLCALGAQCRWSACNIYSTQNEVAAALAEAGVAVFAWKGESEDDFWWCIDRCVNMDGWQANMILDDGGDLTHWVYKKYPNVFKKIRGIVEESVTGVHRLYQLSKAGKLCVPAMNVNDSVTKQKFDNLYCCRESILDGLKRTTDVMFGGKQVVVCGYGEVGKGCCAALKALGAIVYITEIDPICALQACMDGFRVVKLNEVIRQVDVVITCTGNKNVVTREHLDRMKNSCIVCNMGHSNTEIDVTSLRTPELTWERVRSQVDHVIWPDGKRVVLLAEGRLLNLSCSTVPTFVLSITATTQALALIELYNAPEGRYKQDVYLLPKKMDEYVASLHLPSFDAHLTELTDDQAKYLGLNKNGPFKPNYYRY

Compound in this assay: CC1Cc2ccccc2N1C(=O)C1CCCN(C1)C(=O)CCl (mixture of isomers) [TRIM25 ligand 11 (diastereomer mixture)]
Put plainly: probe-labelled cysteine peptide fold change vs DMSO (competition) (log2 fold change); higher = less target engagement (more negative = stronger competition). The conditions noted are these: THP-1, incubation time: 4 h.
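Note: competitive chemoproteomic profiling in live THP-1 cells with an iodoacetamide desthiobiotin (IA-DTB) probe, comparing probe-labelled peptide intensities in compound-treated cells against DMSO-treated controls.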

Take “ANAPC10_Q9UM13_173_CTTIDFMMYR (UniProt Q9UM13)”: the “probe-labelled cysteine peptide fold change” value (10 µM) was -0.00282 and the “probe-labelled cysteine peptide fold change” value (50 µM) was -0.0614.
The like results for “ALDH4A1_P30038_95_FCYADK (UniProt P30038)” were, in that order, 0.00112 and 0.0311.
In the case of “AGPAT2_O15120_92_PCVIVSNHQSILDMMGLMEVLPER (UniProt O15120)”, the “probe-labelled cysteine peptide fold change” value by setting is: (10 µM) 0.37; (50 µM) -0.381.
“ALDH18A1_P54886_546_EAVQLVNTREEVEDLCR (UniProt P54886)”: the “probe-labelled cysteine peptide fold change” value runs as follows: (10 µM) 0.16; (50 µM) 0.103.
“AK1_P00568_187_KVNAEGSVDSVFSQVCTHLDALK (UniProt P00568)”: the “probe-labelled cysteine peptide fold change” value is -0.17 (10 µM) and -0.224 (50 µM).
As for “AKR7A2_O43488_156_LQCPQVDLFYLHAPDHGTPVEETLHACQR (UniProt O43488)”, the “probe-labelled cysteine peptide fold change” value worked out at 0.275 (10 µM) and 0.266 (50 µM).
As to “ANAPC5_Q9UJX4_670_CQVASAASYDQPK (UniProt Q9UJX4)”, the “probe-labelled cysteine peptide fold change” value is -0.0326 (10 µM) and 0.0346 (50 µM).
The like results for “AIP_O00170_78_FKLPVWETIVCTMR (UniProt O00170)” were, in that order, -0.126 and -0.225.
For the target “ANAPC2_Q9UJX6_557_FGEAPMHFCEVMLK (UniProt Q9UJX6)”, the “probe-labelled cysteine peptide fold change” value came to 0.061 (10 µM) and 0.0195 (50 µM).
With “AKR7A2_O43488_132_LQCPQVDLFYLHAPDHGTPVEETLHACQR (UniProt O43488)”, the “probe-labelled cysteine peptide fold change” value reads like this: (10 µM) 0.0379; (50 µM) 0.339.
For “AKAP9_Q99996_1367_ETEQNYEAEIHCLQK (UniProt Q99996)”, the “probe-labelled cysteine peptide fold change” value (10 µM) is -0.0395 and the “probe-labelled cysteine peptide fold change” value (50 µM) is -0.0793.
On to “ALDH16A1_Q8IZ83_39_CLGHYVNGK (UniProt Q8IZ83)”, for which the “probe-labelled cysteine peptide fold change” value by setting is: (10 µM) 0.00997; (50 µM) -0.0413.
“ALDH3A2_P51648_220+226_DCDLDIVCR (UniProt P51648)”: the “probe-labelled cysteine peptide fold change” value is 0.473 (10 µM) and 0.274 (50 µM).
Take “ALDH18A1_P54886_606+612_CEYPAACNALETLLIHR (UniProt P54886)”: the “probe-labelled cysteine peptide fold change” value is -0.0162 (10 µM) and 0.0659 (50 µM).
Regarding “AKR1B1_P15121_187_YKPAVNQIECHPYLTQEK (UniProt P15121)”, the “probe-labelled cysteine peptide fold change” value is 0.00538 (10 µM) and -0.0454 (50 µM).
For “AKAP9_Q99996_3508_LIEMNGGGTGCNHELEMIR (UniProt Q99996)”, the “probe-labelled cysteine peptide fold change” value was 0.0786 (10 µM) and -0.04 (50 µM).
As to “AKR1B1_P15121_304_VCALLSCTSHK (UniProt P15121)”, the “probe-labelled cysteine peptide fold change” value by setting is: (10 µM) 0.0108; (50 µM) -0.134.
On to “ANAPC2_Q9UJX6_421_VLDPSMVILEVACEPIRR (UniProt Q9UJX6)”, for which the “probe-labelled cysteine peptide fold change” value runs as follows: (10 µM) 0.159; (50 µM) -0.011.
On to “AIDA_Q96BJ3_69_IATCLELR (UniProt Q96BJ3)”, for which the “probe-labelled cysteine peptide fold change” value is, setting by setting: (10 µM) -0.102; (50 µM) 0.146.
On to “ANAPC7_Q9UJX3_131_VRPSTGNSASTPQSQCLPSEIEVK (UniProt Q9UJX3)”, for which the “probe-labelled cysteine peptide fold change” value was -0.167 (10 µM) and -0.378 (50 µM).
In the case of “ALDH9A1_P49189_173_SAPALACGNAMVFK (UniProt P49189)”, the “probe-labelled cysteine peptide fold change” value (10 µM) came out at 0.142 and the “probe-labelled cysteine peptide fold change” value (50 µM) was 0.123.
In the case of “ALCAM_Q13740_113_FVCMLVTEDNVFEAPTIVK (UniProt Q13740)”, the “probe-labelled cysteine peptide fold change” value is 0.0437 (10 µM) and -4.56e-05 (50 µM).
With “AKAP1_Q92667_389_EESCVPVHQK (UniProt Q92667)”, the “probe-labelled cysteine peptide fold change” value reads like this: (10 µM) 0.00574; (50 µM) 0.0244.
As for “AMN1_Q8IY45_230_ILLFHGCPLITDHSR (UniProt Q8IY45)”, the “probe-labelled cysteine peptide fold change” value by setting is: (10 µM) 0.0839; (50 µM) -0.038.
With “ALKBH4_Q9NXW9_227_SVLCQEVEVAIPLPAR (UniProt Q9NXW9)”, the “probe-labelled cysteine peptide fold change” value (10 µM) is -0.159 and the “probe-labelled cysteine peptide fold change” value (50 µM) was 0.0301.
The like results for “AHCY_P23526_195_FDNLYGCR (UniProt P23526)” were, in that order, 0.0837 and 0.189.
As to “ALDH9A1_P49189_288+289_GALMANFLTQGQVCCNGTR (UniProt P49189)”, the “probe-labelled cysteine peptide fold change” value stood at 0.121 (10 µM) and 0.112 (50 µM).
With “AMPD2_Q01433_107_SLPGPAPCLK (UniProt Q01433)”, the “probe-labelled cysteine peptide fold change” value was -0.11 (10 µM) and -0.295 (50 µM).
With “ALOX5_P09917_419_EQLICECGLFDK (UniProt P09917)”, the “probe-labelled cysteine peptide fold change” value is, setting by setting: (10 µM) -0.177; (50 µM) 0.0528.
Regarding “AIFM1_O95831_441_SNIWVAGDAACFYDIK (UniProt O95831)”, the “probe-labelled cysteine peptide fold change” value is -0.0697 (10 µM) and 0.0312 (50 µM).
Consider “AHCYL1_O43865_211_GESEDDFWWCIDR (UniProt O43865)”, for which the “probe-labelled cysteine peptide fold change” value runs as follows: (10 µM) 0.324; (50 µM) 0.214.
“ALDH18A1_P54886_584_GIPVMGHSEGICHMYVDSEASVDK (UniProt P54886)”: the “probe-labelled cysteine peptide fold change” value is -0.157 (10 µM) and -0.177 (50 µM).
With “AKAP2_Q9Y2D5_296_RAQQEQLLLQKQLQQQQQQPPSQLCTAPASSHER (UniProt Q9Y2D5)”, the “probe-labelled cysteine peptide fold change” value runs as follows: (10 µM) -0.14; (50 µM) -0.0878.
For the target “ALDOC_P09972_73_KCIGGVIFFHETLYQK (UniProt P09972)”, the “probe-labelled cysteine peptide fold change” value runs as follows: (10 µM) 0.048; (50 µM) 0.0826.
Consider “AHCYL1_O43865_373_QVDVVITCTGNK (UniProt O43865)”, for which the “probe-labelled cysteine peptide fold change” value by setting is: (10 µM) 0.104; (50 µM) 0.0158.
Regarding “ALG11_Q2TAA5_345_LVLIGGCR (UniProt Q2TAA5)”, the “probe-labelled cysteine peptide fold change” value (10 µM) is -0.0253 and the “probe-labelled cysteine peptide fold change” value (50 µM) was found to be 0.0632.
The like results for “AKR1B1_P15121_81_LWCTYHEK (UniProt P15121)” were, in that order, 0.0955 and 0.0203.
